These are yes or no findings as the source states them, for the method shown. In cells and extracts the contact can be indirect. Some binding calls cover weakened binding; strength is not graded here.
Biological target: non-degradable HIF1α (P564A) (UniProt Q16665)
Experiment: co-IP

Protein sequences, listed by entry. Tags and fused reporters are not part of them. Lines headed by an entry give the natural chain unless they say otherwise; changes in a name come on top.
UniProt Q16665: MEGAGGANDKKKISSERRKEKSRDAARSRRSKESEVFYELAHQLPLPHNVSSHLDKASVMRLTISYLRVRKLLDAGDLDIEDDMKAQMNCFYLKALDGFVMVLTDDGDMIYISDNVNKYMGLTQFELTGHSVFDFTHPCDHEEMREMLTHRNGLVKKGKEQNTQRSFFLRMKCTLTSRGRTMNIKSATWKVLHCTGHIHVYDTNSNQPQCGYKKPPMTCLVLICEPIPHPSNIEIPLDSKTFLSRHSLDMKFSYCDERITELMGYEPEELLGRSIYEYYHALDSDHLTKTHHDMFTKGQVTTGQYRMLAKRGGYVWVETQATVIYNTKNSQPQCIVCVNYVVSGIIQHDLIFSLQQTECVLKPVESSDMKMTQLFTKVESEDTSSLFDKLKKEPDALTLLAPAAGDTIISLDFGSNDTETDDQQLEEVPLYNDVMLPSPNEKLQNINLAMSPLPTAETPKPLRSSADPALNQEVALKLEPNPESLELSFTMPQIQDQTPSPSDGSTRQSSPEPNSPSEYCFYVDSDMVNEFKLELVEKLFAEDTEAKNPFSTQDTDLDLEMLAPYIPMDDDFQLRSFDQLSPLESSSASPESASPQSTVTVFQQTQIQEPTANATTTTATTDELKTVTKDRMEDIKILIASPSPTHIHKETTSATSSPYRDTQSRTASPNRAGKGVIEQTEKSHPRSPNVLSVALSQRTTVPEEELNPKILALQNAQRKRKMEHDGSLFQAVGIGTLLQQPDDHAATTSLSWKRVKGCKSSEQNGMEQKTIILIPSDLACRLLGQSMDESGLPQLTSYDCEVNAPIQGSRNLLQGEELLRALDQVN
UniProt Q15022: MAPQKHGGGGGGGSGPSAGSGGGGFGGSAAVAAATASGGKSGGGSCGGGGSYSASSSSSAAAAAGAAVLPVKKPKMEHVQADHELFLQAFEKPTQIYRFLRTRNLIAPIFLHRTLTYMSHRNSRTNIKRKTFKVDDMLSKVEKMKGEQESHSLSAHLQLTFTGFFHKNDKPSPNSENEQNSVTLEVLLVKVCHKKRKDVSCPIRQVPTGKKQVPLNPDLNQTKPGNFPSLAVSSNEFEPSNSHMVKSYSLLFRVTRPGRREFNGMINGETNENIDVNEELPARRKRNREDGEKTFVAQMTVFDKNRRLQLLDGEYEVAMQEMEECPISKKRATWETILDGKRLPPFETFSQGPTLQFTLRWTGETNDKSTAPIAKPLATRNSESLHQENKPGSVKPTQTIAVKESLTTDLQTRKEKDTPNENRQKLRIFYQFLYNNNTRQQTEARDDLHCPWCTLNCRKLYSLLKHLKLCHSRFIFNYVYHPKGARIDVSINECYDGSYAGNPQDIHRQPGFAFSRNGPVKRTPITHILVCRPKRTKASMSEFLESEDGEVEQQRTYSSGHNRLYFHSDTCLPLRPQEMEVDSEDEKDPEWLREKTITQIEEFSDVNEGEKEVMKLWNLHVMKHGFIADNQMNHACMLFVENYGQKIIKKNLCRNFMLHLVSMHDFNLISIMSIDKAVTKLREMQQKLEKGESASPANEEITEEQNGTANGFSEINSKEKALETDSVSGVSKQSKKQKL

binding: binds
Substance: SUZ12 (in 293T cells) (from UniProt Q15022 1-739)

Reference: publication doi:10.1101/790519
